# Measured values taken from PubChem BioAssay AID540276 (National Center for Advancing Translational Sciences (NCATS), 2011).
# The campaign covered roughly 300,000 compounds. About 5,400 (1.8%) were called active. Inconclusive means that the source gave no clear call. Such entries were picked first, then a sample of the others. Calls come from the whole dose curve; tested in HEK293 cells. Potencies of inconclusive entries are doubtful fits and often do not repeat.
# Experiment: qHTS for inhibitors of binding or entry into cells for Marburg Virus
# Conditions: Marburg virus pseudotyped entry inhibition, cell reporter; activity change, negative = inhibition: at 37.8 µM (top of the series) unless noted
# % is set by controls: 0 for no effect and ±100 for the full control effect; potency is the fitted concentration of half-maximal effect.
SMILES,Potency,"activity change, negative = inhibition"
CC1(C)Cc2[nH]c(=S)c(C#N)cc2CO1,"inconclusive: 0.1 µM [activator, full curve, poor fit]",–
O=C(COc1ccccc1/C=C1\SC(=O)NC1=O)Nc1ccc(F)cc1,"inconclusive: 7.08 µM [inhibitor, full curve, poor fit]",–
O=C(NCCC(=O)N1CCN(c2ccccn2)CC1)c1ccc(Cl)cc1,"inconclusive: 20 µM [activator, partial curve, poor fit]",–
Cc1ccc2[nH]c(=O)c(CN(CCN3CCOCC3)C(=O)Nc3ccc(F)cc3)cc2c1,–,inactive: -9.68%
CCCOc1ccc(C(=O)Nc2ccc(S(=O)(=O)NC3=NCCCCC3)cc2)cc1,"inconclusive: 35.5 µM [inhibitor, single point]",–
O=C1NCCN(C(=O)CCc2nnc(-c3ccsc3)o2)C1c1ccc(F)cc1 (centres undefined),–,inactive: 2.71%
COc1ccc(CC2(CO)CCN(S(=O)(=O)c3sccc3C)CC2)cc1,"inconclusive: 7.94 µM [inhibitor, partial curve]",–
Cc1nn(C(=O)COc2ccc(Cl)cc2)c(C)c1Sc1ccccc1,–,inactive: 25.6% [at 46.1 µM]
CCOC(=O)c1ccc(NC(=O)CC2C(=O)N(c3ccccc3)C(=O)N2Cc2ccc(C)cc2)cc1 (centres undefined),"inconclusive: 14.1 µM [inhibitor, single point]",–
Cc1cc(Cl)ccc1C(=O)C1CCCN(C(=O)c2ccsc2)C1 (centres undefined),–,inactive: -2.21%
CCn1c(O)c(C=Nc2ccccc2)oc1=S,"inconclusive: 10 µM [activator, partial curve]",–
Cc1ccccc1N1CCN(C2CCCN(C(=O)c3csc(C(C)C)n3)C2)CC1 (centres undefined),"inconclusive: 14.1 µM [inhibitor, single point]",–
Cc1[nH]c2ccccc2c1/C=N/NC(=O)CNC(=O)COc1ccccc1,"inconclusive: 6.31 µM [inhibitor, single point]",–
CCOc1ccccc1N1CCN(S(=O)(=O)c2cc(C)ccc2OC)CC1,"inconclusive: 11.2 µM [inhibitor, partial curve, poor fit]",–
Cc1ccc(C)c(N2CCN(C(=O)c3ccc(N4CCOCC4)c([N+](=O)[O-])c3)CC2)c1,"inconclusive: 17.8 µM [inhibitor, partial curve, poor fit]",–
CC(=O)c1cccc(NC(=O)c2ccc(S(=O)(=O)N3CCCCC3)cc2)c1,"inconclusive: 10 µM [inhibitor, single point]",–
Nc1n[nH]c(N)c1N=Nc1ccccc1,"inconclusive: 5.62 µM [activator, partial curve, poor fit]",–
O=C1CN(C(=O)CSc2nncs2)c2ccccc2N1,"inconclusive: 8.91 µM [activator, partial curve, poor fit]",–
CC(C)C(c1nnnn1Cc1ccco1)N1CCN(C2CCCC2)CC1 (centres undefined),–,inactive: 1.12%
C=CCOC(=O)N[C@H](C(C(=O)OC)=C(C)NCc1ccccc1)c1ccc2c(c1)OCO2,"inconclusive: 0.0266 µM [inhibitor, partial curve, poor fit]",–
COc1cccc(OC)c1C(=O)NC(C)c1ccccc1 (centres undefined),"inconclusive: 14.1 µM [inhibitor, partial curve, poor fit]",–
CCOc1ccc(NC(=O)COC(=O)c2cc([N+](=O)[O-])ccc2N2CCOCC2)cc1,"inconclusive: 35.5 µM [inhibitor, single point]",–

# Of the compounds above, these have nitrogen in an aromatic ring.
SMILES,Potency,"activity change, negative = inhibition"
CC1(C)Cc2[nH]c(=S)c(C#N)cc2CO1,"inconclusive: 0.1 µM [activator, full curve, poor fit]",–
O=C(NCCC(=O)N1CCN(c2ccccn2)CC1)c1ccc(Cl)cc1,"inconclusive: 20 µM [activator, partial curve, poor fit]",–
Cc1ccc2[nH]c(=O)c(CN(CCN3CCOCC3)C(=O)Nc3ccc(F)cc3)cc2c1,–,inactive: -9.68%
O=C1NCCN(C(=O)CCc2nnc(-c3ccsc3)o2)C1c1ccc(F)cc1 (centres undefined),–,inactive: 2.71%
Cc1nn(C(=O)COc2ccc(Cl)cc2)c(C)c1Sc1ccccc1,–,inactive: 25.6% [at 46.1 µM]
CCn1c(O)c(C=Nc2ccccc2)oc1=S,"inconclusive: 10 µM [activator, partial curve]",–
Cc1ccccc1N1CCN(C2CCCN(C(=O)c3csc(C(C)C)n3)C2)CC1 (centres undefined),"inconclusive: 14.1 µM [inhibitor, single point]",–
Cc1[nH]c2ccccc2c1/C=N/NC(=O)CNC(=O)COc1ccccc1,"inconclusive: 6.31 µM [inhibitor, single point]",–
Nc1n[nH]c(N)c1N=Nc1ccccc1,"inconclusive: 5.62 µM [activator, partial curve, poor fit]",–
O=C1CN(C(=O)CSc2nncs2)c2ccccc2N1,"inconclusive: 8.91 µM [activator, partial curve, poor fit]",–
CC(C)C(c1nnnn1Cc1ccco1)N1CCN(C2CCCC2)CC1 (centres undefined),–,inactive: 1.12%

# Additional entries follow:

SMILES,Potency,"activity change, negative = inhibition"
COc1ccc(Cn2nnnc2C(c2ccccc2Cl)N2CCN(C3CCCC3)CC2)cc1 (centres undefined),"inconclusive: 25.1 µM [inhibitor, single point]",–
O=C(c1ccco1)N(Cc1ccc([N+](=O)[O-])cc1)c1ccc(Br)cc1,"inconclusive: 3.55 µM [inhibitor, full curve, poor fit]",–
COc1ccc2nc(/N=C(\N)NC(=O)N3c4ccccc4Sc4ccccc43)nc(C)c2c1,–,inactive: -0.277%
Cc1nc2ccc(Br)cn2c(=O)c1Cl,–,inactive: -2.53%
COc1ccc(NC(=S)N/N=C2\CC(C)(C)Oc3ccc(OC)cc32)cc1,"inconclusive: 14.1 µM [activator, single point]",–
CCOc1ccc(CC(=O)Nc2c3c(nn2C(C)(C)C)CS(=O)(=O)C3)cc1,–,inactive: 33.2%
O=C(CN1C(=O)/C(=C/c2ccccc2F)SC1=S)NC1C=CS(=O)(=O)C1 (centres undefined),–,inactive: -5.91% [at 46.1 µM]
OCCOc1ccc(C2=NCCO2)cc1,–,inactive: -2.13%
COc1ccc(/C=N/Nc2nc(-c3cccc(S(=O)(=O)N4CCCC4)c3)cs2)cc1OC,"inconclusive: 12.6 µM [inhibitor, single point]",–
COc1ccc(NC(=O)N2CCc3nc(COc4ccccc4)c4c(c3C2)CO[C@@H](C)C4)cc1,inactive,–
CC(C)CCNC(=O)c1cccc(S(=O)(=O)N2CCc3ccccc32)c1,"inconclusive: 8.91 µM [inhibitor, partial curve, poor fit]",–
CCOc1ccccc1NC(=O)CCNS(=O)(=O)c1cccc2nsnc12,–,inactive: -1.74% [at 46.1 µM]
O=C(COc1ccc2ccccc2c1)N1CCN(Cc2c[nH]c3ccccc23)CC1,"inconclusive: 22.4 µM [inhibitor, single point]",–
CCOc1ccc(S(=O)(=O)NCCC(=O)NC2=NCCS2)cc1,"inconclusive: 0.355 µM [inhibitor, partial curve, poor fit]",–
CCC(C(=O)NCc1ccco1)N(C(=O)CNS(=O)(=O)c1ccc(C)cc1)c1ccccc1OC (centres undefined),"inconclusive: 0.0891 µM [inhibitor, full curve, poor fit]",–
Cc1cccc(NC(=O)c2ccc([N+](=O)[O-])o2)n1,"inconclusive: 7.3 µM [inhibitor, partial curve, poor fit]",–
COc1ccc(C(=O)NC(=S)N2CCCCC2)cc1,"inconclusive: 5.8 µM [activator, full curve, poor fit]",–
Nc1ccc2nc(C(F)(F)F)[nH]c2c1,–,inactive: 10.4%
COC(=O)CNC(=O)COC(=O)c1ccc(Cl)nc1,–,inactive: -4.03%
Cc1cc2c(c(=O)n1Cc1cccnc1)C(c1ccccc1)C(C#N)=C(N)O2 (centres undefined),–,inactive: -5.25%
O=C(Cn1c(=O)oc2ccccc21)Nc1ccc(F)cc1,–,inactive: 6.51% [at 46.1 µM]
COc1cc2c(cc1OC)CN(Cc1cc(=O)n3c(-c4ccccc4)csc3n1)CC2,"inconclusive: 31.6 µM [activator, single point]",–
